The results in this text go back to the supplement of paper PMC4256282, “Profound Activity of the Anti-cancer Drug Bortezomib against Echinococcus multilocularis Metacestodes Identifies the Proteasome as a Novel Drug Target for Cestodes” (PLoS Neglected Tropical Diseases, 2014).

Where a name gives a salt, the structure may show the parent alone. The list shows a part of the results. Repeats are few or missing, and single values can be far off.

The assay has as its system Echinococcus multilocularis metacestodes. Kind of assay: vesicle damage (PGI release) relative to positive control DB1127 at 20 µM, DMSO subtracted; higher = more parasite damage. Particulars: treatment time 5 days.
`Cn1nnc2c(C(N)=O)ncn2c1=O` [Methazolastone]: the vesicle damage was -1.73%.
As for `CC(C)C(=O)Oc1ccc(CO)cc1[C@H](CCN(C(C)C)C(C)C)c1ccccc1` [Fesoterodine fumarate], the figure is -0.981%; as for `NC(=O)Cc1cccc(C(=O)c2ccccc2)c1N` [Nepafenac], -1.69%.
Next, `O=c1c(-c2ccc(O)cc2)coc2cc(O)ccc12` [Daidzein]: -10.3%.
Regarding `O=C(CCCN1CCC(O)(c2ccc(Cl)cc2)CC1)c1ccc(F)cc1` [Haloperidol], the vesicle damage was 1.25%.
